About 210 (0.4%) of roughly 52,000 sequences were called active.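 Rule for the calls: active = gene whose silencing raises cell survival under the drug, median off-target-corrected z-score across its silencing RNAs 2 or more; inactive = the rest.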 Some of the results follow.

This assay in a line: Resistance to Poly (ADP-Ribose) Polymerase inhibitor: Gene Identification via Genome-wide siRNA Screen. The settings on record: mouse BRCA2 R2336H ES cells, olaparib, CellTiter-Glo viability; stronger effect = higher value. An outline of the steps: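 Mouse BRCA2 R2336H ES cells were reverse-transfected with siRNA (20 nM final), treated at 48 h with 500 nM olaparib, and read by CellTiter-Glo after 72 h. Scores: MAD-based z per siRNA, median per gene, seed off-target correction.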
In general terms: Cellular ATP, detected with luciferase, serves as a proxy for viable cell number.
As for GCCAAUAUAGGUUUUAGGUTT against Serpinb6b, the z-score is inactive: 0.596.

GGAGAUACAUUGGUAGGUATT against Idua: the z-score is inactive: -0.889.

As to GGAUCAAUCAUGCAUCCAUTT against Lipc, the z-score is inactive: -0.902.

GGAACACAAAGGUAAGAAATT against Raf1: the z-score is inactive: 0.462.

Regarding GGCGUACAGUAUUUCCUACTT against Il17d, the z-score was inactive: 0.292.

On to “GGCUUCAUAAGAUCAAAGATT against 4921526F01Rik”, for which the z-score was inactive: -0.865.

As for GCAUUAAGGUCUUACUCCATT against Rufy1, the z-score is inactive: 0.172.

Turning to GCAUGAACUUACCCUAUUATT against V1rh21, the z-score was inactive: -1.38.

Turning to CGCGGAGGACUACAAUGAGTT against Katnb1, the z-score is inactive: -0.254.

GGUGCUUUAUUCAUAAAGATT against Gprc5b: the z-score is inactive: 0.749.

On to CCUAAUUGAAAUCAGCAGUTT against Hip1r, for which the z-score was inactive: 0.325.

As to GGCUCAGAUCUUUGACUACTT against Pnp, the z-score was inactive: 0.273.

Turning to CCCAGAUUACCGUAAGCGATT against Jup, the z-score was inactive: -0.124.

With “CCUGAUUGUGUGUUCAUAATT against D5Bwg0834e”, the z-score is inactive: -2.41.

CGGGAAGUAAACAUUUCCATT against Rassf6: the z-score was inactive: -0.0315.

“GCCUUGAUACAGAACAUGATT against E330040A16Rik”: the z-score was inactive: -1.78.

For the sequence GGAAGAUUAAAGGACAGUATT against D17Wsu94e, the z-score is inactive: -1.14.

In the case of GCUGACCAGUAAGUUGUAUTT against Zswim5, the z-score is inactive: 0.142.

As for “GGUCUCAGCAAUCUGUUCCTT against 1700029I15Rik”, the z-score is inactive: -3.14.

Take GGAUUGUCCUUCGACUACGTT against Itgb3: the z-score is inactive: -0.303.

With CCAGUGCCUAUUAAAAUGCTT against Sox30, the z-score is inactive: 1.35.

As to “GCUGUCCUUCUAUAACCCATT against A930004K21Rik”, the z-score was inactive: -0.507.

With “GCUACAGUGGGACUUAGGATT against E130112L23Rik”, the z-score is inactive: 0.368.

On to GGCUCAGCUUUUCUGUCAUTT against Cd200r3, for which the z-score was inactive: 0.843.

Turning to GCUGGAGACAUUCGGUGAUTT against BC060267, the z-score was inactive: -0.581.

With GGUUCCUGAAAUCAAAUAUTT against Rgs1, the z-score was inactive: -1.53.

As for GGAAUAGUAGCAAAACAGATT against Ppm1l, the z-score was inactive: 0.0896.

In the case of “GCAGUACAUAGACAAGUUATT against 0610010D24Rik”, the z-score was inactive: -0.631.

In the case of GGUAGAAAGUAACAGGAAGTT against Adhfe1, the z-score is inactive: -0.842.

Take “GCGAAUCAUGAAAUACCAGTT against D10Ertd610e”: the z-score is inactive: -0.31.

As for “GCAAGCAACGGUCAUUCUCTT against 8430417G17Rik”, the z-score is inactive: 0.175.

GGUUAAUAGCAACAACCAGTT against Kifc3: the z-score is inactive: 1.06.

Regarding GGUACAAAAGUUAAAGAGATT against Uchl5, the z-score is inactive: 1.2.

For the sequence GGUCUUUAGAAUUAGGCUCTT against Pml, the z-score is inactive: 0.0668.

Consider “GCACGAGUAUGUUUGACAUTT against 3732412D22Rik”, for which the z-score is inactive: -0.375.

Consider CGGCUUUGAAGUGGUGUAUTT against Smad9, for which the z-score is inactive: 0.09.

For “AAGCGGAACUUCAGUAGCGTT against D11Bwg0280e”, the z-score is inactive: 2.74.

For the sequence GCUCGGUUUACUUAAAGUGTT against Alg2, the z-score was inactive: 0.892.

Regarding “CCAGAUAUGCACAUGAUAUTT against 4732415M23Rik”, the z-score was inactive: -0.882.

As to “CGAGGGAGACGAAAUUGUCTT against 1810014F10Rik”, the z-score was inactive: -1.31.

GGACUCUCUUCUGGCAUCUTT against Bapx1: the z-score is inactive: 0.458.

On to GGAACAUUCCAGAAUAUCATT against Gm711, for which the z-score is inactive: 0.106.

Take GGCUUUGUAUCCUUAUGUATT against BC035291: the z-score is inactive: -0.703.

As for “GCAUUUGAGGCACUUAGAATT against 6430556C10Rik”, the z-score was inactive: 1.19.

As for GGACUGGUAGUUCUGAUUUTT against Ppm1g, the z-score was inactive: 0.67.

Turning to GCUACUGAGAACAUAAACCTT against Hoxd4, the z-score is inactive: 0.226.

With “GGAGCCCAUCAAGUAUGGUTT against 6030441F14Rik”, the z-score was inactive: -0.78.

GAAAGAAUCUAGAAAAGUGTT against Sprrl7: the z-score was inactive: -0.296.

Take GCUCGUUUACUCUUACACCTT against Ebaf: the z-score was inactive: 0.87.

In the case of GGACCUUCGAAGUGCUAUGTT against Apbb1, the z-score was inactive: -0.134.

As to CUUACGAUACAUAAGAGAATT against Zfp457, the z-score was inactive: 0.984.

As to GGGCCAGACUCCAUACUAUTT against Arid1a, the z-score is inactive: -0.692.

Turning to GGGUGAGAAUGACCACUUUTT against Kcnq2, the z-score was inactive: -1.43.

As to CCCACAUAAGCGAAUCUCUTT against Cdk4, the z-score was inactive: 0.72.

For CGAGGACUCAAUAGUAGCCTT against MGC59495, the z-score was inactive: 2.68.

As for GGCAAUCUGCACUUUAUACTT against Pank2, the z-score is inactive: 0.397.

For GCAGAUCCAAUCAAAUCUCTT against Ly86, the z-score is inactive: 0.268.

In the case of GGCAGGCCUCAGUUGAGAUTT against Pycrl, the z-score was inactive: 0.572.

Regarding GGAAAUUCCAUGUAUGACUTT against Tm7sf2, the z-score was inactive: -0.765.

For GGAGAAAUCAUCACAGUUATT against Snx9, the z-score is inactive: -0.624.

GGAUGGACAUUUUGUCUUCTT against Mmp15: the z-score is inactive: 0.459.

Turning to GGUCACGAUUCUGUCAGACTT against Catnal1, the z-score was inactive: -0.264.

For “GGAAAAGGACCUUAAAUUUTT against 2810441O16Rik”, the z-score is inactive: 0.153.

Turning to GGAGAGAAUAUCACAAUUGTT against Tas2r102, the z-score was inactive: -1.34.

Take GCUACCUACUCAACAUUGCTT against Trim32: the z-score was inactive: 0.054.

With GGGACCACAGCACUGGUUUTT against Cox6a1, the z-score was inactive: -0.975.

Source of the values: PubChem BioAssay AID1347423 (Functional Genomics Laboratory (NCATS/FGL), 2020).
